From PMC10883267 (2023)
These are yes or no findings as the source states them, for the method shown. Binding seen in cells or lysates may run through a third protein. A yes stands for co-enrichment or nearness to the bait. Other partners may have been found. For part of these data: No binding means not detected with the bait. Sequences can lack the tags named with a protein.

Sequences of proteins named here, by UniProt entry; tags and fusion partners are left off. A change or cut given only in a name is not applied to a line headed by its entry.
UniProt A0ACM8QBM4: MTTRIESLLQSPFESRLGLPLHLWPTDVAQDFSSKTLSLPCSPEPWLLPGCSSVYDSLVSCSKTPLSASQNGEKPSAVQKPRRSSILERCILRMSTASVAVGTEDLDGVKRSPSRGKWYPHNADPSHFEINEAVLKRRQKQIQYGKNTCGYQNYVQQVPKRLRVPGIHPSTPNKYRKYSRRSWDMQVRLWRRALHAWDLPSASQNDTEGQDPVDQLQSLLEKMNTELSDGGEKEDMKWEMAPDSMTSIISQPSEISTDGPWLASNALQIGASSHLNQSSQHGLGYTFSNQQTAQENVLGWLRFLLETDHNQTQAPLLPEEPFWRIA
UniProt Q803B9: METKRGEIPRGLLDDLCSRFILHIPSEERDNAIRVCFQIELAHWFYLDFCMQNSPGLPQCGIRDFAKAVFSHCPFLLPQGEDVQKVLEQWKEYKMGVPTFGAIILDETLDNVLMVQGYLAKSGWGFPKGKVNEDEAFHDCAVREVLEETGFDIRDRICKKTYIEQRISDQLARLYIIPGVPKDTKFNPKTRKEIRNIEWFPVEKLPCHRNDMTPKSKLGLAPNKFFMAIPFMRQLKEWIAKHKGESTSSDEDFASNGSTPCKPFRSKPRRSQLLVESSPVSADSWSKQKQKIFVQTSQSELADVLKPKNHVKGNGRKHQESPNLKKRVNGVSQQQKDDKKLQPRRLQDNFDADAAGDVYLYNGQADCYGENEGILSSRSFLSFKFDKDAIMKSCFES
UniProt Q6PHD4: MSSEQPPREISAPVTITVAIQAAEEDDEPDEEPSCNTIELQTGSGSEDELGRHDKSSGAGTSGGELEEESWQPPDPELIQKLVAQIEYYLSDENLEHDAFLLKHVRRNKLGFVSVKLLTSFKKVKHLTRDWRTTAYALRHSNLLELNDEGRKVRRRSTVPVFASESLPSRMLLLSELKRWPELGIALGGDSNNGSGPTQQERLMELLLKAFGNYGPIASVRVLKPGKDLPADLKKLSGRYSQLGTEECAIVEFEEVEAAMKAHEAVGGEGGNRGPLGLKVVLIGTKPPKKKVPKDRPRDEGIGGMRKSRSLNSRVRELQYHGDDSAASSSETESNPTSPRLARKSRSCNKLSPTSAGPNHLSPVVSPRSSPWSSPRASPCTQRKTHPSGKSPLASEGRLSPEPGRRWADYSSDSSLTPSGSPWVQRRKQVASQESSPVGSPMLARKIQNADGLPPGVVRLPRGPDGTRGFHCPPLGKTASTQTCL

Target: T1, 3xflag-sfGFP-eIF4E1b (zebrafish, full length) (zebrafish) (UniProt Q9PW28)
T1 sequence: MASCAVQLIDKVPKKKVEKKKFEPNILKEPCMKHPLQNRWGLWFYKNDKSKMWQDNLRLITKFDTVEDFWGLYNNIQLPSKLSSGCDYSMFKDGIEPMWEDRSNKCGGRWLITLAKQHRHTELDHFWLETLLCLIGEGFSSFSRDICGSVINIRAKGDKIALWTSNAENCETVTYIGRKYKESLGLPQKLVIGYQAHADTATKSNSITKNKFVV
Test: affinity purification with mass spectrometry; as a2, 8-cell embryos expressing GFP-tagged eIF4E1b, lysate treated with RNase I (1 unit per 500 μL lysate, 30 min, 37 °C)

Row | Molecule | binding
1 | zebrafish eIF4ENIF1 | binds

Target: T1, 3xflag-sfGFP-eIF4E1b (zebrafish, full length) (zebrafish)
Test: affinity purification with mass spectrometry; anti-GFP agarose beads, lysates of transgenic zebrafish oocytes (early, late) and embryos (8-cell, 3 hpf) expressing GFP-tagged eIF4E1b or eIF4E1c, wild-type lysates as control; 100 mM Tris-HCl pH 7.5, 150 mM NaCl, 0.05% Triton X-100; 4 °C overnight

Row | Molecule | binding
2 | zebrafish Zar1 (protein, UniProt Q7T3T8 1-329) MATYGNETVDNYLYSSYNPYYYKYPKFKGWRQKAYFTNYGEGETYFDNHHRAQLKSILSQINPNLTPRLRKANTKDVGVQVNPKTDASIQCSLGPRTLLARKRDALRRRRQEVQTPGSPVSSGGVRFPRTQAVYSPVESRRLVSLFREEGEEEEDTDLEVTETVDSAEKLESAEKNVRKQGKKSAKQPLSPEKNINKQTETNEENTNEPVKTEQDDLKSKARVRFQSLEQKYGFYHCKDCNLRWESAYVWCVQGTNKVYFKQFCRTCQKSFNPYRVEDIACQTCKKARCTCSVKSRHVDPKRPHRQDLCGRCKGKRLSCDSTFSFKYII | binds
3 | zebrafish Larp6b (protein, UniProt A0A8M1NE68 1-471) MSSPGFTDIFHCEDTQQSKGLFSYTDDGLNDSLDGSSTDLTDVFEEDFCEGELWIPPNDDVTQQIATQLENYLSDENLSDDAFLLKHVQRNKMGYVSLKLLTSFKKIRDLTRDWRTTLAAARTSPQLEVNEMGTKVRRRTPVPDWLLCIPTSKLLLAWNFLDGAGPVKEKFESPGVEQLGIMEAAMRVFSPYGTISSLRILRPGKEIPAELKRYTKKHLELGRKVCAVVEYEYLEGARKAFEALKVEEQQGGRGICVVLLGSRGTRKPGCSQGLVDEEQEDCIDIDVLKRPDRKARQFVYSLEDSAVCSSSESDFAPASPRPNRRVSRPQALYGSPLAIPRVSTFRSDPYRNPLGSPVGSPLQPRKLFPCSHVTSPLATHPFSSTPSGAGTSFKYKASGELSPDDLGFTSSPWVQRRKNAAQVIQPEMASSMSPSQLIKSLSVLVVRQPVGPDGTKGFHNCIGRGKVLLPQ | binds
4 | zebrafish Edc4 (protein, UniProt Q1LUT1 1-1384) MASSSSMDIEGATQHLRDILKLDRPGNSAEASLVESQRKPSFNGELNGVLGSDLMGAAMVEPTVHNSDKLNGQDTQTICLSGDDGSICVPIRANIVEIVSSRDSSIDSKARGSNKVKIQPVAKYDWEHKYYYGNLIAVSNTYLAYAIRGANNHSMIRVLHLSSTERSLLKGFTGAVTDLAFAHLDSTLLGCVDEAGNMFIWQLTSHSSKIQDEVIVHIRRPEDTPLNSNRRLIWCPFIPEDNDESPEDACQTLALLHEDRAEVWDLDILRSNNSSWPVDATELKEGFITIRGHAARISEGALSPDGTVLATASHDGYVKFWQIYIEGQDQPRCLHEWQPHNGQPLSCLLFCDNHKKQDPDVPFWRFLITGADQNQELKMWCTVSWTCLQTIRFSPDPFNCGVLPSLKASLDLSAEFLILSDVQRKVLYVMELLQDQEKGRASFTAVSEFLLTHPVLSFGVQDVSRARLRHTEVLPPEEESESMTAEGNQGTSESRSGIQIKLYCVHTKSLQDVQIWFQPNQGDSSSLFMPQSGSQDGFSFSDPLADLNVEAMSSDKESGDSGSQNDLSKILPLPSPADFMSPAPSALPKLMTPDAFMTPSASMPASPGSSASSLTIVTAMSSSDSGARGGDDLTQSPKMSVECVNSSFANAGSPRSNSILISGLGENIQVSPPNPPLSLDLQAIDPMVVPQASPTRARSPDVISSASTAMSQDIPEIASETLQRGLSGANADSGPILHSDSMASAASILHLLSPRARSSAEHSLLPLELGAASVDGEQRLSNTPSLLETALSQENAGAAGGSCSDSSVNHAWPAAPDITRETRNSLRDNGLGDCSREEIKDRHISSPYHRRTYHLTQNDSQDASAEQSDHDDEVASLASSSGNCGPRSSHRLPVKDWKTSPRSSPKLKRKSKKDEGESSQSRQIESQMSTEVQDELLQMLRSQQREIAELRQNQLDLLQRVTSHMDAVQSSMMAHIEHAMLAQQEQEQRRMERILVEGQSRNQQLQDQLVQQLVQTLNNSLCNRLEKVLREEMKKTVPQTISKSLEPVTGQMNSTIAAKLTAVEGALKENVTKVVKSKNTTDAIGRAAAEAMQGPIQAAYKETFQSIVLPVFERGCQSMFQQINDSFKQGTNEYIQQLETHIKNRKQRDQDTRDPVIGQLQQMIDSLQSSQDQLASTVTASVSSDVQHQLHMIVGNLQDSILTQVQRIVKGEVSLAMKEQQAAVTSSIMQAMRSAAGTPVPSAHLDYQAQQASILQLLQQGQLNEAFQQALSAADLNLVLYVCETIDSQQVFGQQPCPLHQAVLLSLIQQLSTNLSTRTELKISYLEDAVMNLDHGDPVTRDHMSAVLTQVRQKLFLFLQQDAHSPMSKRARRLMMMLQGLVNH | no binding

Target: T1, 3xflag-sfGFP-eIF4E1b (zebrafish, full length) (zebrafish)
Test: as above
Remark: another data set of the same source

Row | Molecule | binding
5 | zebrafish Dcp1 | no binding
6 | zebrafish eIF4ENIF1 | binds
7 | zebrafish Slbp2 (from UniProt A0ACM8QBM4 1-326) | binds
8 | zebrafish Dcp2 (from UniProt Q803B9 1-397) (enzyme) | no binding
9 | zebrafish Larp6a (from UniProt Q6PHD4) | binds
